{"source": "patent US20200405643A1", "about": "“DRUG COMPOSITIONS CONTAINING POROUS CARRIERS MADE BY THERMAL OR FUSION-BASED PROCESSES” (BOARD OF REGENTS, THE UNIVERSITY OF TEXAS SYSTEM, priority 2017, published 2020)", "origin": "cited, not measured here", "note": "Where two headings read alike, the source gives them in different places."}
{"smiles": "COC(=O)C1=C(C)NC(C)=C(C(=O)OC)C1c1ccccc1[N+](=O)[O-]", "note": "[Nifedipine]", "values": [{"measurement": "Solubility (37° C.)", "setting": "pH 1.2", "result": "10 μg/mL (pH 1.2)"}, {"measurement": "Solubility (37° C.)", "setting": "pH 4", "result": "10 μg/mL (pH 4.0)"}, {"measurement": "Solubility (37° C.)", "setting": "pH 6.8", "result": "10 μg/mL (pH 6.8)"}]}
